Source: US5698670A (priority 1993, dated 1997)
HELM strings list residues between dots; [ac] is acetyl, [am] amide, other brackets name non-standard units.

Assay: general procedure: solution-phase peptide synthesis; PyBroP/DIEA; HOOBt/water-soluble carbodiimide
Conditions: coupling step

Which step yield does the source give for “Boc-L -MeVal-L -Phe-D -MeAla-L -Pro-OPac” here?
Its step yield is 82.3%.

With “Boc-L -aIle-L -MeVal-L -Leu-L -βHOMeVal-D -Hmp-L -MeVal-L -Cha-D -MeVal-L -Pro-OPac” as the substance, how does the step yield read?
Its step yield is 67.9%.

With “Boc-L -aIle-L -MeVal-L -Leu-L -βHOMeVal-D -Hmp-L -MeVal-L -Tyr(c-C6 H11 --CH2 --)-D -MeAla-L -Pro-OPac” as the substance, how does the step yield read?
The step yield was 91.2%.

For “Boc-L -aIle-L -MeVal-L -Leu-L -βHOMeVal-D -Hmp-L -MeVal-L -Tyr(Bzl)-D -MeAla-L -Pro-OPac”, which step yield is on record?
The step yield was 74.3%.

With “Boc-L -aIle-L -MeVal-L -Leu-L -βHOMeVal-D -Hmp-L -MeVal-L -Phe-D -MeAla-L -Pro-OPac” as the substance, how does the step yield read?
The step yield was 85.1%.

With “Boc-L -Leu-L -βHOMeVal-D -Hmp-L -MeVal-L -Phe-D -MeAla-L -Pro-OPac” as the substance, how does the step yield read?
The step yield was 75.5%.

Which step yield does the source give for “Boc-L -aIle-L -MeVal-L -Leu-L -βHOMeVal-D -Hmp-L -MeVal-L -Cha-D -MeAla-L -Pro-OPac” here?
The step yield was 89.2%.

For “Boc-L -aIle-L -MeVal-L -Leu-L -βHOMeVal-D -Hmp-L -MeVal-L -Cha-D -MeSer(Bzl)-L -Pro-OPac”, which step yield is on record?
Its step yield is 80.7%.

Which step yield does the source give for “Boc-L -aIle-L -MeVal-L -Leu-L -βHOMeVal-D -Hmp-L -MeVal-L -Leu-D -MeAla-L -Pro-OPac” here?
The step yield was 55.5%.

Which step yield does the source give for “Boc-L -aIle-L -MeVal-L -Leu-L -βHOMeVal-D -Hmp-L -MeVal-L -pFPhe-D -MeAla-L -Pro-OPac” here?
Its step yield is 88.7%.

With “Boc-L -aIle-L -MeVal-L -Leu-L -βHOMeVal-D -Hmp-L -MeVal-L -Ser(Bzl)-D -MeAla-L -Pro-OPac” as the substance, how does the step yield read?
Its step yield is 77.1%.

Which step yield does the source give for “Boc-L -aIle-L -MeVal-L -Leu-L -βHOMeVal-D -Hmp-L -MeVal-L -Phe-D -MeVal-L -Pro-OPac” here?
Its step yield is 62.3%.

For “Boc-L -aIle-L -MeVal-L -Leu-L -βHOMeVal-D -Hmp-L -MeVal-L -Cha-L -MePhe-L -Pro-OPac”, which step yield is on record?
The step yield was 68.8%.

Same assay, conditions: cyclisation step

For “PEPTIDE1{[aIle].[MeVal].L.[bHOMeVal].[D-Hmp].[MeVal].[Tyr(Bzl)].[D-MeAla].P}$PEPTIDE1,PEPTIDE1,1:R1-9:R2$$$V2.0”, which cyclisation yield is on record?
Its cyclisation yield is 41.5%.

Which cyclisation yield does the source give for “cyclo(L -aIle-L -MeVal-L -Leu-L -βHOMeVal-D -Hmp-L -MeVal-L -Cha-D -MeVal-L -Pro)” here?
The cyclisation yield was 20.5%.

For “PEPTIDE1{[aIle].[MeVal].L.[bHOMeVal].[D-Hmp].[MeVal].F.[D-MeVal].P}$PEPTIDE1,PEPTIDE1,1:R1-9:R2$$$V2.0”, which cyclisation yield is on record?
Its cyclisation yield is 35.0%.

Which cyclisation yield does the source give for “PEPTIDE1{[aIle].[MeVal].L.[bHOMeVal].[D-Hmp].[MeVal].[pFPhe].[D-MeAla].P}$PEPTIDE1,PEPTIDE1,1:R1-9:R2$$$V2.0” here?
Its cyclisation yield is 29.8%.

With “PEPTIDE1{[aIle].[MeVal].L.[bHOMeVal].[D-Hmp].[MeVal].L.[D-MeAla].P}$PEPTIDE1,PEPTIDE1,1:R1-9:R2$$$V2.0” as the substance, how does the cyclisation yield read?
Its cyclisation yield is 39.4%.

With “cyclo(L -aIle-L -MeVal-L -Leu-L -βHOMeVal-D -Hmp-L -MeVal-L -Cha-D -MeAla-L -Pro)” as the substance, how does the cyclisation yield read?
Its cyclisation yield is 28.6%.

For “cyclo(L -aIle-L -MeVal-L -Leu-L -βHOMeVal-D -Hmp-L -MeVal-L -Cha-L -MePhe-L -Pro)”, which cyclisation yield is on record?
The cyclisation yield was 23.9%.

For “cyclo(L -aIle-L -MeVal-L -Leu-L -βHOMeVal-D -Hmp-L -MeVal-L -Cha-D -MeSer(Bzl)-L -Pro)”, which cyclisation yield is on record?
Its cyclisation yield is 34.3%.

With “PEPTIDE1{[aIle].[MeVal].L.[bHOMeVal].[D-Hmp].[MeVal].[Ser(Bzl)].[D-MeAla].P}$PEPTIDE1,PEPTIDE1,1:R1-9:R2$$$V2.0” as the substance, how does the cyclisation yield read?
Its cyclisation yield is 45.2%.

For “cyclo(L -aIle-L -MeVal-L -Leu-L -βHOMeVal-D -Hmp-L -MeVal-L -Tyr(c-C6 H11 --CH2 --)-D -MeAla-L -Pro)”, which cyclisation yield is on record?
Its cyclisation yield is 52.3%.

For “Cyclo (L -aIle-L -MeVal-L -Leu-L -βHOMeVal-D -Hmp-L -MeVal-L -Phe-D -MeAla-L -Pro)”, which cyclisation yield is on record?
Its cyclisation yield is 55.5%.

Same assay, conditions: late stage modification step

Which step yield does the source give for “HCl. H-L -MeVal-L -Phe-D -MeAla-L -Pro-OPac” here?
Its step yield is 92.7%.

With “HCl.H-L -aIle-L -MeVal-L -Leu-L -βHOMeVal-D -Hmp-L -MeVal-L -Cha-D -MeVal-L -Pro-OH” as the substance, how does the step yield read?
The step yield was 86.4%.

With “HCl.H-L -H-L -Leu-L -βHOMeVal-D -Hmp-L -MeVal-L -Phe-D -MeAla-L -Pro-OPac” as the substance, how does the step yield read?
The step yield was 74.2%.

With “HCl.H-L -aIle-L -MeVal-L -Leu-L -B HOMeVal-D -Hmp-L -MeVal-L -pFPhe-D -MeAla-L -Pro-OH” as the substance, how does the step yield read?
The step yield was 96.1%.

Which step yield does the source give for “HCl.H-L -aIle-L -MeVal-L -Leu-L -βHOMeVal-D -Hmp-L -MeVal-L -Cha-D -MeAla-L -Pro-OH” here?
The step yield was 90.3%.

For “cyclo(L -aIle-L -MeVal-L -Leu-L -βHOMeVal-D -Hmp-L -MeVal-L -Cha-D -MeSer-L -Pro)”, which step yield is on record?
Its step yield is 80.5%.

With “HCl.H-L -aIle-L -MeVal-L -Leu-L -βHOMeVal-D -Hmp-L -MeVal-L -Leu-D -MeAla-L -Pro-OH” as the substance, how does the step yield read?
The step yield was 93.2%.

With “HCl.H-L -aIle-L -MeVal-L -Leu-L -βHOMeVal-D -Hmp-L -MeVal-L -Cha-L -MePhe-L -Pro-OH” as the substance, how does the step yield read?
Its step yield is 100%.

For “Boc-L -aIle-L -MeVal-L -Leu-L -βHOMeVal-D -Hmp-L -MeVal-OH”, which step yield is on record?
The step yield was 77.8%.

With “HCl.H-L -aIle-L -MeVal-L -Leu-L -βHOMeVal-D -Hmp-L -MeVal-L -Phe-D -MeAla-L -Pro-OH” as the substance, how does the step yield read?
Its step yield is 78.7%.

Which step yield does the source give for “PEPTIDE1{[aIle].[MeVal].L.[bHOMeVal].[D-Hmp].[MeVal].[Tyr(Me)].[D-MeAla].P}$PEPTIDE1,PEPTIDE1,1:R1-9:R2$$$V2.0” here?
Its step yield is 69.1%.

For “H-L -Phe-L -MePhe-L -Pro-L -aIle-L -MeVal-L -Leu-L -βHOMeVal-D -Hmp-L -MeVal-OH”, which step yield is on record?
The step yield was 29.7%.

For “HCl.H-L -aIle-L -MeVal-L -Leu-L -βHOMeVal-D -Hmp-L -MeVal-L -Ser(Bzl)-D -MeAla-L -Pro-OH”, which step yield is on record?
Its step yield is 82.8%.

With “HCl.H-L -aIle-L -MeVal-L -Leu-L -βHOMeVal-D -Hmp-L -MeVal-L -Phe-D -MeVal-L -Pro-OH” as the substance, how does the step yield read?
Its step yield is 73.6%.

For “HCl.H-L -aIle-L -MeVal-L -Leu-L -βHOMeVal-D -Hmp-L -MeVal-OH”, which step yield is on record?
The step yield was 100%.

With “HCl.H-L -aIle-L -MeVal-L -Leu-L -βHOMeVal-D -Hmp-L -MeVal-L -Cha-D -MeSer(Bzl)-L -Pro-OH” as the substance, how does the step yield read?
Its step yield is 78.0%.

With “HCl.H-L -aIle-L -MeVal-L -Leu-L -βHOMeVal-D -Hmp-L -MeVal-L -Tyr(Bzl)-D -MeAla-L -Pro-OH” as the substance, how does the step yield read?
The step yield was 96.1%.

With “cyclo(L -aIle-L -MeVal-L -Leu-L -βHOMeVal-D -Hmp-L -MeVal-L -Tyr-D -MeAla-L -Pro)” as the substance, how does the step yield read?
Its step yield is 90.6%.

For “HCl.H-L -aIle-L -MeVal-L -Leu-L -βHOMeVal-D -Hmp-L -MeVal-L -Tyr(c-C6 H11 --CH2 --)-D -MeAla-L -Pro-OH”, which step yield is on record?
The step yield was 80.8%.

For “Z-L -Phe-L -MePhe-L -Pro-L -aIle-L -MeVal-L -Leu-L -βHOMeVal-D -Hmp-L -MeVal-OH”, which step yield is on record?
Its step yield is 81.5%.
